Measurements: publication PMC5717335

Chains of the proteins cited; added tags and fusions are not shown.
UniProt Q96IK1: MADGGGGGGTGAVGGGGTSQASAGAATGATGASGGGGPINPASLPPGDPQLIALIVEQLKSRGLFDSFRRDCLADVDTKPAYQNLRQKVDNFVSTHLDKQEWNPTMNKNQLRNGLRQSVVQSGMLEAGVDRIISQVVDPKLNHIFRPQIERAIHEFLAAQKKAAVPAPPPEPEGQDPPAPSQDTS
UniProt Q9UBL3: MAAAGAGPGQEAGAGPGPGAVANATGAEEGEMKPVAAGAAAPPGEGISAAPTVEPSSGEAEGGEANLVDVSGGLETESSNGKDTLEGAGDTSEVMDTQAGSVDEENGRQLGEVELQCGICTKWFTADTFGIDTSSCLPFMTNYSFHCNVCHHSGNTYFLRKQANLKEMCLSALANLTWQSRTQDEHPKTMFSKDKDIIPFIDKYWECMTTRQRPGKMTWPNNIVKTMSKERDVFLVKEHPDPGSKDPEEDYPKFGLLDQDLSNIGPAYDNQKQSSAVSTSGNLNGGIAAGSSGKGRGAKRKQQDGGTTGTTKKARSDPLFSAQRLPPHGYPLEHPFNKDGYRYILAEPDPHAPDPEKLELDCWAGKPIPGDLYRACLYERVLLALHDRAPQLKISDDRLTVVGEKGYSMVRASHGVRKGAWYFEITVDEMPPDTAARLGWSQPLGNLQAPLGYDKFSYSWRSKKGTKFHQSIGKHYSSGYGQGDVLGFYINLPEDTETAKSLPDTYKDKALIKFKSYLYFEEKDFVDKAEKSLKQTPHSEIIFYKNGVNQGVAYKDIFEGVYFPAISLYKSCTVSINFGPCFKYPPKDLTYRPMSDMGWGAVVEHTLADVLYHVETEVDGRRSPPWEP

Target: Bod1-GFP (human) (UniProt Q96IK1)
Assay: affinity purification with mass spectrometry; GFP Binder (Chromotek) affinity purification of Bod1-GFP from lysates of HeLa cells arrested in mitosis with STLC, 90 min at 4°C; label-free quantitative MS against cells expressing GFP alone; n = 4 biological replicates

Substance: ASH2 L (from UniProt Q9UBL3 1-628)
- binding: binds

No constants are given. Whether binding was seen depends on the method and setting. Binding seen in cells or lysates may run through a third protein. Here binding means that the protein was enriched with, or labelled near, the bait; the list need not be complete.
